Reference: publication PMC3625590, “NBM-T-L-BMX-OS01, Semisynthesized from Osthole, Is a Novel Inhibitor of Histone Deacetylase and Enhances Learning and Memory in Rats” (Evidence-based Complementary and Alternative Medicine : eCAM, 2013)
Structures can show the parent of a compound that is named as a salt.

Test system: Sco-induced amnesia rats
Experiment: Passive one-way avoidance, Sco-induced memory impairment
Assay type: in vivo, Sprague-Dawley rats
Conditions: Sco 1.5 mg/kg/d; BMX or SAHA 5 mg/kg/d i.p.; 1 day and 7 days after footshock
Protocol: SAHA was supplied by NatureWise Biotech and Medicals Corporation (Taipei, Taiwan). […] (St. Louis, MO, USA). The BMX and SAHA stock (100 mg/mL) was dissolved in DMSO and diluted with saline to a final concentration of 0.5 mg/mL (in 0.5% DMSO/saline). Sco was dissolved in saline to a final concentration of 0.15 mg/mL based on previous studies. SD rats were randomly divided into 3 groups. For the naïve animal experiments, the BMX-injected or SAHA-injected groups were injected with BMX (5 mg/kg/d) or SAHA (5 mg/kg/d) intraperitoneally 7 d prior to behavioral experiments and during the experimentation. The control group received the 0.5% DMSO/saline injection. The injection volume was 10 μL/g of body weight. The injections were performed once per day. For the amnesia experiment, the protocol was adopted from previous studies with modifications. The Sco-injected (SAHA + Sco) or (BMX + Sco)-injected groups were injected with Sco (1.5 mg/kg/d), SAHA (5 mg/kg/d) or BMX (5 mg/kg/d), intraperitoneally 7 d prior to behavioral experiments and during the experimentation. The control group received the 0.5% DMSO/saline injection. The injection volume was 10 μL/g of body weight. […] The behavioral task, including the training and testing procedures, was recorded between 8:00 AM and 6:00 PM. […]

Question: Which “retention time in the illuminated chamber” value does the source give for `CN1[C@@H]2C[C@@H](OC(=O)[C@H](CO)c3ccccc3)C[C@H]1[C@@H]1O[C@@H]12` [Sco, Scopolamine hydrochloride] here?
Answer: showed less retention time in the illuminated chamber
